# Literature values in US20120094998A1, “Oligomer-Protein Tyrosine Kinase Inhibitor Conjugates” (Nektar Therapeutics, priority 2009, published 2012).
# Details: control compounds of the Caco-2 test; cited from earlier work
compound,measurement,value
CC(C)NCC(O)COc1ccc(CC(N)=O)cc1 (stereo not shown) [atenolol],human absorption,approximately 50%
